## Library screening results

Data taken from ChEMBL document CHEMBL3988442, “University of Dundee, Small-Polar-MMV Screening Library” (2021).

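Whole-cell assay for inhibitors of Mycobacterium tuberculosis growth, labelled Cornell in the record; the read-out is not stated. The concentration is filed as 10 mM, unlikely as a test dose, so the dose is not known. Higher means stronger inhibition (inferred from two other growth screens of the library). Size under these conditions: about 53,000 compounds, about 900 of them at 50% or above in at least one test.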

Values are the deposited “Percent Effect”, in %.
How 0% and 100% were set is not recorded. Most values in the screen are low, and negative values occur.
This is an unselected part of the compounds tested.

With COCc1nc(CN2CC(Cc3ccccc3)CC2=O)no1 (centres undefined) the screen gave 6.961%.
With Cn1ccc(NCc2cc3cc(F)ccc3o2)n1 the screen gave 23.12%.
With O=C(O)C(F)(F)F.O=C(O)C(F)(F)F.[H][C@@]12CN(Cc3cccc(F)c3)C[C@]1([H])OCCN2Cc1c(C)noc1C the screen gave -12.37%.
With Cc1nnc(Nc2cccc(C3CCN(Cc4ncc[nH]4)CC3)n2)s1 the screen gave -3.935%.
With CNC(=O)[C@@H]1C[C@@H](N)CN1Cc1cc2cc(C)cc(C)c2[nH]c1=O the screen gave -16.16%.
With Cc1cccc(C(=O)N2CCCC(Cc3cncc4ccccc34)C2)n1 (centres undefined) the screen gave 13.69%.
With Cc1nnc(N2CCc3cnc(C(C)C)nc3C2)c(C#N)c1C the screen gave -4.616%.
With CCN1CCCC(CN(C)c2nccc(-c3ccc(C)nc3C)n2)C1 (centres undefined) the screen gave -42.8%.
With CC(C)C(=O)NCC(=O)N1CCC2(CC1)c1ccccc1[C@@H](N)[C@@H]2O the screen gave 1.634%.
With CCC(=O)N1CCC(c2nnc(Cn3cccn3)n2C2CC2)CC1 the screen gave 3.898%.
With Cn1ccc(C(=O)N2CCC3(CCN3c3ncccn3)C2)n1.O=C(O)C(F)(F)F (centres undefined) the screen gave 1.797%.
With CN(C)C(=O)c1ccc(C2CCCN2C(=O)c2ccccc2N(C)C)s1 (centres undefined) the screen gave 2.419%.
With Cc1cccc(-n2ncc(C(=O)N3CCn4c(C)nnc4C3)c2C)c1 the screen gave 20.96%.
With Cn1nc2c(cc1=O)CN(Cc1ccc(-n3cccn3)cc1)CC2 the screen gave 18.35%.
With CCCNC(=O)c1[nH]nc(C2CC2)c1Br the screen gave -6.776%.
With Cc1cc(-c2nc(-c3c(C)ncc4c3CCNC4)no2)nc(C)n1 the screen gave -16.31%.
With NC(=O)NC(=O)CCSc1ccccc1Cl the screen gave 14.75%.
With O=C(O)C(F)(F)F.[H][C@@]12CCCO[C@]1([H])[C@@H](OCc1ccncc1)CN2C(=O)CC1CCCC1 the screen gave 6.771%.
With Cc1nc(C2CN(Cc3scnc3C)CCO2)cc(N(C)C)n1 (centres undefined) the screen gave -4.038%.
With CCc1nnsc1C(=O)NCCn1nc2ccccn2c1=O the screen gave 12.13%.
With CC(C)(CO)CCCNC(=O)NC1(c2ccccc2F)CC1 the screen gave 22.76%.
With COc1cc(OC)c(CNC(=O)NCc2ccc(C#N)cc2)c(OC)c1 the screen gave 13.81%.
With CC(C)Oc1cc(N2CCCC(O)C2)nc(N)n1 (centres undefined) the screen gave 3.061%.
With CC(C)N(C)C(=O)C1=NOC2(CCN(C(=O)c3ccnnc3)C2)C1 (centres undefined) the screen gave -17.78%.
With CCc1nc(C2NC3(CCCC3)C(=O)N2CC2CC2)cs1 (centres undefined) the screen gave -37.34%.
With O=C(O)c1ccccc1-n1cnc(CN2CCc3ccccc32)c1 the screen gave 32.25%.
With CNc1nc(C)c(-c2nc(-c3c(C)ncc4c3CCNC4)no2)s1 the screen gave 11.12%.
With CCCN1CCC(c2nc3ccc(NCc4ccccc4)cn3n2)CC1.O=C(O)C(F)(F)F.O=C(O)C(F)(F)F the screen gave 5.858%.
With Cn1cc(C2CCCN2C(=O)CS(=O)(=O)C2CCCC2)cn1 (centres undefined) the screen gave 2.142%.
With O=C(c1ccco1)N1CC(S(=O)(=O)c2ccc(Cl)cc2)C1 the screen gave -30.78%.
With CC(C)NS(=O)(=O)c1ccccc1CNCc1cccc(O)c1 the screen gave 13.23%.
With Cc1cnc(CN(C)C2CCCN(Cc3noc(C4CC4)n3)C2)cn1 (centres undefined) the screen gave -53.55%.
With Cl.O=C(Nc1ccccc1F)C1=NOC2(CCNCC2)C1 the screen gave -23.5%.
With c1ccc(CNC2CCc3ncnn3C2)nc1 (centres undefined) the screen gave 8.66%.
With c1ccc(N2CCCC2)c(NCc2ccncc2)c1 the screen gave 4.342%.
With O=C(c1scc2c1OCCO2)N1CCOC(Cc2ccc(F)cc2)C1 (centres undefined) the screen gave 12.77%.
With COc1ccc(CNCCc2cccc(C(N)=O)c2)cc1C the screen gave -8.752%.
With CC(=O)N1CCN(c2nc3c(cnn3C(C)(C)C)c(=O)[nH]2)CC1 the screen gave 26.42%.
With O=C(O)C(F)(F)F.O=C(O)C(F)(F)F.[H][C@@]12COC[C@]1(CNS(=O)(=O)CC)CN(Cc1ccccn1)C2 the screen gave 36.6%.
With CC(C#N)CN(C)C(=O)CCNC(=O)OC(C)(C)C (centres undefined) the screen gave 19.92%.
With CN1CCC(O)(CNC(=O)c2cc(COc3cccc(F)c3)[nH]n2)CC1 the screen gave 22.73%.
With CN(C)c1cc(C(=O)NCCc2nnc(-c3ccco3)[nH]2)ccn1 the screen gave -37.98%.
With O=C(O)C(F)(F)F.[H][C@@]12CCN(Cc3ccc(F)cc3)[C@]1([H])CC[C@H](C(=O)N1CCCO1)O2 the screen gave 15.96%.
With Cn1cccc1C(=O)NC1(C(=O)NCC2CC2)CCCC1 the screen gave -8.261%.
With O=C(c1cc2c(s1)CCC2)N1CCCC1Cn1cccn1 (centres undefined) the screen gave -7.459%.
With Cl.Cl.O=C(NCc1cncc2c1CCN(Cc1ccccc1)C2)C1CC1 the screen gave -25.57%.
With O=S(=O)(Cc1ccccc1F)Cc1nnnn1C1CC1 the screen gave 2.463%.
With Cc1nc(CN(C)C2CCN(Cc3nc(C4CC4)no3)C2)no1 (centres undefined) the screen gave -13.26%.
With CC(C)(C)OC(=O)N1CC(CC(=O)NCc2ccsc2)C1 the screen gave 9.239%.
With O=C(O)C(F)(F)F.O=C(c1ccccc1)N1CCC[C@]2(C[C@@H](OCc3ccccn3)CO2)C1 the screen gave -51.55%.
With [H][C@@]12CCN(CCN3CCCC3)C[C@]1(C(=O)NCc1ccco1)CCO2 the screen gave -2.006%.
With COc1cc(CNCC2CN(C3CC3)CCO2)cc(OC)c1.Cl (centres undefined) the screen gave 35.33%.

Some entries from above, unchanged:

{"compound": "CCCNC(=O)c1[nH]nc(C2CC2)c1Br", "Percent Effect": -6.776}
{"compound": "O=C(c1cc2c(s1)CCC2)N1CCCC1Cn1cccn1", "stereo": "centres undefined", "Percent Effect": -7.459}
{"compound": "[H][C@@]12CCN(CCN3CCCC3)C[C@]1(C(=O)NCc1ccco1)CCO2", "Percent Effect": -2.006}
{"compound": "Cc1cc(-c2nc(-c3c(C)ncc4c3CCNC4)no2)nc(C)n1", "Percent Effect": -16.31}
{"compound": "CC(C#N)CN(C)C(=O)CCNC(=O)OC(C)(C)C", "stereo": "centres undefined", "Percent Effect": 19.92}